Experimental data as given in patent publication US5929223.

Legend:
[1] = target: T1, dCREB2-b (Drosophila melanogaster) (UniProt Q9VWW0); experiment: EMSA; conditions: purified recombinant protein, label: 32P 5' end
T1 sequence (limits assumed): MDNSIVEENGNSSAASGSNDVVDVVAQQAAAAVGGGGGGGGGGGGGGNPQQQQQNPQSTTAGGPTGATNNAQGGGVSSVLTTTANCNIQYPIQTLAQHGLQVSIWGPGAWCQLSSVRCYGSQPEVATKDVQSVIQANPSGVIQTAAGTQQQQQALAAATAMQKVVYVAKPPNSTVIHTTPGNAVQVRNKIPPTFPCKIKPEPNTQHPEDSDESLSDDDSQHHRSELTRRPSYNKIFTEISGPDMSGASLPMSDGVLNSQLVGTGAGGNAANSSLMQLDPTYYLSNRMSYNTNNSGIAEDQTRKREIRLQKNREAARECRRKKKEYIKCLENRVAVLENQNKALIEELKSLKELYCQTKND

[2] = target: T1, dCREB2-b (Drosophila melanogaster); experiment: binding assay; conditions: DNA-binding screen of phage expression library on filters (phage-expressed protein); purified recombinant protein; label: 32P Klenow fill-in
[3] = target: T1, dCREB2-b (Drosophila melanogaster); experiment: competition with a labelled probe; conditions: nonspecific competitor versus 3xCRE probe; purified recombinant protein

AAATGAATTAACGGAAATGAATTAACGGAAATGAATTAACGG (double strand) [3xmCRE]
binding result ([1]; lower but detectable affinity than 3xCRE, variant of 3xCRE): binds more weakly

AAATGACGTAACGGAAATGACGTAACGGAAATGACGTAACG (double strand) [3xCRE]
binding result ([1]; gel with 3 mM MgCl2, Tris-glycine): binds

CGTCTAGATCTATGACTGAATATGACGTAATATGACGTAATGGTACCAGATCTGGCC (double strand) [3xCRE cloning/screening probe]
binding result [2]: binds

CTAGAGCTTGCAAGCATGCTTGCAAGCAAGCATGCTTGCAAGCATGCTTGCAAGC (double strand) [Nonspecific competitor #3]
binding result [3]: binds more weakly

CTCTAGAGCGTACGCAAGCGTACGCAAGCGTACG (double strand) [Nonspecific competitor #4]
binding result [3]: binds more weakly

The exact form of at least one protein or probe is not confirmed. For some assays here: A weaker result is weaker than the reference pair of the same experiment. Protein sequences can lack the tags named with them.
